Measured values taken from the supplement of paper PMC6078165.
The reference is the same well before dosing, and untreated signal decays as well.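 Fibroblast labels denote human fibroblasts, mainly primary ones from uterus (C12385, HUF), lung (H6013), bone (Hs27A), adrenal (HADF) and skin (WS1), plus mammary HMF and breast cancer-associated Hs343T. Cancer cells are basal-like or mesenchymal-like triple-negative breast cancer lines. A hit is a response shift exceeding 3x replicate standard deviation. The tissue of the other fibroblasts is not given here.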

Tested on: Hs578T
Experiment: relative JC-1 red fluorescence (viability) vs pre-drug, coculture with fibroblast (fraction); higher = more viable cancer cells
Experimental: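 JC-1 labelled TNBC cells cocultured 1:1 (1,500 cells each) with CellTrace Violet stained primary or stromal fibroblasts in 384-well plates in FluoroBrite medium, treated with one of 42 anticancer drugs at 0.1, 1, 10 or 100 uM. JC-1 red fluorescence (mitochondrial integrity in cancer cells only) was read by plate reader every 8 h for 72 h. Values are normalised to each well's pre-drug value. The stock of one drug was tenfold lower, so its dose labels may be too high.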

CO[C@@]12[C@H](COC(N)=O)C3=C(C(=O)C(C)=C(N)C3=O)N1C[C@@H]1N[C@@H]12 [Mitomycin C]
relative JC-1 red fluorescence
Conditions	8 h	16 h	24 h	32 h	40 h	48 h	56 h	64 h	72 h
0.1 µM	0.919	0.834	0.818	0.797	0.745	0.722	0.705	0.669	0.66
1 µM	0.895	0.795	0.7415	0.70673	0.659	0.618	0.604	0.572	0.557
10 µM	0.94	0.81	0.717	0.662	0.596	0.55	0.507	0.463	0.45
100 µM	0.796	0.573	0.503	0.495	0.464	0.44	0.448	0.427	0.431

relative JC-1 red fluorescence
Conditions	8 h	16 h	24 h	32 h	40 h	48 h	56 h	64 h	72 h
0.1 µM, coculture fibroblast: C12385	0.8366	0.7562	0.7315	0.6276	0.5756	0.557	0.528	0.521	0.513
0.1 µM, coculture fibroblast: H6013	0.883	0.816	0.752	0.717	0.665	0.636	0.602	0.579	0.535
0.1 µM, coculture fibroblast: H6019	0.75	0.624	0.575	0.463	0.401	0.359	0.315	0.281	0.258
0.1 µM, coculture fibroblast: H6076	0.909	0.8243	0.796	0.791	0.746	0.741	0.702	0.689	0.662
0.1 µM, coculture fibroblast: H6231	0.9142	0.823	0.74	0.694	0.624	0.595	0.545	0.518	0.489
0.1 µM, coculture fibroblast: HADF	0.896	0.855	0.769	0.721	0.676	0.641	0.591	0.568	0.526
0.1 µM, coculture fibroblast: HCFa	0.867	0.789	0.723	0.683	0.614	0.586	0.549	0.52	0.479
0.1 µM, coculture fibroblast: HCPF	0.9075	0.8108	0.771	0.739	0.6865	0.66	0.63935	0.6012	0.574
0.1 µM, coculture fibroblast: HHSteC	0.932	0.835	0.81	0.79	0.75	0.732	0.709	0.694	0.656
0.1 µM, coculture fibroblast: HMF	0.9373	0.857	0.784	0.762	0.698	0.663	0.62	0.603	0.582
0.1 µM, coculture fibroblast: HPFa	0.9333	0.835	0.771	0.71	0.662	0.623	0.577	0.55	0.5
0.1 µM, coculture fibroblast: HUF	0.8797	0.76	0.73	0.625	0.567	0.534	0.501	0.488	0.471
0.1 µM, coculture fibroblast: Hs27A	0.882	0.809	0.775	0.7315	0.686	0.672	0.646	0.629	0.578
0.1 µM, coculture fibroblast: Hs343T	0.941	0.845	0.7631	0.74	0.662	0.623	0.5666	0.534	0.505
0.1 µM, coculture fibroblast: WS1	0.803	0.68	0.6373	0.5617	0.5012	0.485	0.4455	0.4309	0.4222
1 µM, coculture fibroblast: C12385	0.77077	0.673	0.612	0.519	0.454	0.418	0.392	0.376	0.365
1 µM, coculture fibroblast: H6013	0.829	0.78	0.7209	0.671	0.634	0.607	0.56	0.536	0.504
1 µM, coculture fibroblast: H6019	0.749	0.657	0.625	0.51	0.445	0.4	0.363	0.333	0.308
1 µM, coculture fibroblast: H6076	0.977	0.885	0.79	0.739	0.669	0.633	0.582	0.541	0.51
1 µM, coculture fibroblast: H6231	0.911	0.782	0.717	0.663	0.588	0.554	0.514	0.49	0.463
1 µM, coculture fibroblast: HADF	0.838	0.779	0.71	0.638	0.595	0.564	0.522	0.505	0.469
1 µM, coculture fibroblast: HCFa	0.799	0.748	0.695	0.6466	0.59439	0.57875	0.549	0.5317	0.4968
1 µM, coculture fibroblast: HCPF	0.88522	0.771	0.739	0.7	0.642	0.627	0.614	0.574	0.552
1 µM, coculture fibroblast: HHSteC	0.8315	0.758	0.687	0.637	0.585	0.548	0.517	0.489	0.452
1 µM, coculture fibroblast: HMF	0.9199	0.831	0.771	0.737	0.685	0.65	0.624	0.588	0.568
1 µM, coculture fibroblast: HPFa	0.894	0.79	0.734	0.68	0.645	0.619	0.577	0.558	0.519
1 µM, coculture fibroblast: HUF	0.846	0.686	0.657	0.552	0.487	0.454	0.421	0.409	0.4
1 µM, coculture fibroblast: Hs27A	0.855	0.767	0.757	0.713	0.661	0.65	0.615	0.604	0.548
1 µM, coculture fibroblast: Hs343T	0.928	0.783	0.705	0.67	0.592	0.557	0.523	0.489	0.465
1 µM, coculture fibroblast: WS1	0.783	0.69	0.665	0.559	0.504	0.485	0.459	0.454	0.442
10 µM, coculture fibroblast: C12385	0.842	0.77	0.689	0.609	0.559	0.527	0.493	0.483	0.475
10 µM, coculture fibroblast: H6013	0.862	0.792	0.712	0.663	0.596	0.567	0.528	0.51	0.475
10 µM, coculture fibroblast: H6019	0.775	0.626	0.567	0.47	0.397	0.355	0.326	0.308	0.297
10 µM, coculture fibroblast: H6076	0.935	0.8	0.7274	0.694	0.631	0.6	0.545	0.508	0.482
10 µM, coculture fibroblast: H6231	0.917	0.812	0.735	0.7031	0.641	0.608	0.563	0.547	0.53
10 µM, coculture fibroblast: HADF	0.916	0.861	0.788	0.717	0.651	0.605	0.563	0.524	0.5
10 µM, coculture fibroblast: HCFa	0.8767	0.777	0.695	0.63	0.56	0.547	0.519	0.505	0.476
10 µM, coculture fibroblast: HCPF	0.9347	0.8449	0.7494	0.7107	0.6411	0.6099	0.5866	0.551	0.5403
10 µM, coculture fibroblast: HHSteC	0.911	0.805	0.735	0.697	0.63	0.597	0.565	0.529	0.493
10 µM, coculture fibroblast: HMF	0.907	0.82	0.748	0.725	0.672	0.65	0.604	0.589	0.567
10 µM, coculture fibroblast: HPFa	0.9486	0.839	0.784	0.734	0.693	0.68	0.643	0.627	0.596
10 µM, coculture fibroblast: HUF	0.857	0.757	0.692	0.593	0.534	0.51	0.472	0.462	0.452
10 µM, coculture fibroblast: Hs27A	0.879	0.825	0.78	0.742	0.697	0.682	0.653	0.641	0.613
10 µM, coculture fibroblast: Hs343T	0.957	0.839	0.725	0.684	0.605	0.5652	0.504	0.465	0.433
10 µM, coculture fibroblast: WS1	0.84	0.7	0.646	0.548	0.478	0.455	0.412	0.405	0.398
100 µM, coculture fibroblast: C12385	0.681	0.543	0.531	0.441	0.413	0.406	0.402	0.413	0.418
100 µM, coculture fibroblast: H6013	0.74	0.612	0.546	0.512	0.498	0.491	0.48	0.478	0.459
100 µM, coculture fibroblast: H6019	0.649	0.4984	0.51	0.428	0.413	0.406	0.395	0.392	0.385
100 µM, coculture fibroblast: H6076	0.828	0.609	0.54	0.514	0.4692	0.4692	0.467	0.465	0.466
100 µM, coculture fibroblast: H6231	0.806	0.559	0.4625	0.457	0.416	0.4119	0.401	0.392	0.398
100 µM, coculture fibroblast: HADF	0.819	0.697	0.626	0.587	0.567	0.559	0.539	0.536	0.505
100 µM, coculture fibroblast: HCFa	0.772	0.639	0.589	0.571	0.578	0.579	0.552	0.552	0.525
100 µM, coculture fibroblast: HCPF	0.836	0.5992	0.524	0.508	0.465	0.458	0.471	0.446	0.44
100 µM, coculture fibroblast: HHSteC	0.7755	0.6103	0.539	0.4999	0.484	0.47	0.466	0.456	0.44
100 µM, coculture fibroblast: HMF	0.8185	0.60837	0.508	0.489	0.45	0.434	0.434	0.429	0.435
100 µM, coculture fibroblast: HPFa	0.784	0.654	0.609	0.582	0.586	0.581	0.562	0.557	0.535
100 µM, coculture fibroblast: HUF	0.728	0.562	0.553	0.48	0.453	0.44	0.433	0.441	0.442
100 µM, coculture fibroblast: Hs27A	0.761	0.65	0.5939	0.565	0.536	0.555	0.544	0.545	0.516
100 µM, coculture fibroblast: Hs343T	0.831	0.617	0.519	0.505	0.46	0.457	0.46	0.459	0.46
100 µM, coculture fibroblast: WS1	0.686	0.556	0.554	0.476	0.449	0.446	0.44	0.454	0.456
